In this assay the target is N-MYC (human (endogenous in CHP-134)) (UniProt P04198). In words: co-IP; immunoprecipitation of endogenous N-MYC from CHP-134 cells; Western blot of co-immunoprecipitated material for WDR5 and MAX. In general terms: A western blot detects proteins with antibodies after separation by electrophoresis.

Amino acid sequences for entries named in this document (tags omitted).
UniProt P04198: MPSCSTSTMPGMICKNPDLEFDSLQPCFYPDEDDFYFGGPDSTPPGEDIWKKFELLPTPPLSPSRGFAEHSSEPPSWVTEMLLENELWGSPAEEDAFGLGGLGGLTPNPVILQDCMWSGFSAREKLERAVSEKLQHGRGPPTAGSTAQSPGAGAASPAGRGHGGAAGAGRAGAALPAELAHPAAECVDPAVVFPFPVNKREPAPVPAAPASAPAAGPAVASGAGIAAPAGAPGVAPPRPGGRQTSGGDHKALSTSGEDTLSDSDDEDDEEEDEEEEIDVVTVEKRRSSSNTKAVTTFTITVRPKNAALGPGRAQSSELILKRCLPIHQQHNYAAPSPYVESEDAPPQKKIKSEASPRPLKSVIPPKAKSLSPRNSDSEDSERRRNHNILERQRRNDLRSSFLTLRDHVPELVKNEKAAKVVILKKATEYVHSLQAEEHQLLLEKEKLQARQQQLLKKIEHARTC
UniProt P61244: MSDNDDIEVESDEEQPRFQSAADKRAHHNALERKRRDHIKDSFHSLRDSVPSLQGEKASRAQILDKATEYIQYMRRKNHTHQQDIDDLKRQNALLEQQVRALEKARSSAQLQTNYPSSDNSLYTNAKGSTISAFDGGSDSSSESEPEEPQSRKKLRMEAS

Here are results for one substance from PMC10279693.

Results are given in words; binding and its absence hold for the method and conditions named. Binding seen in cells or lysates may run through a third protein. Some entries that bind do so weakly or less than the wild type.

Consider MAX (from UniProt P61244 1-160), for which the binding entry is “binds”.
